Experiment [1] deals with T1, AtERdj3A–4M8H (Arabidopsis thaliana) (UniProt Q9SR96).
T1 sequence: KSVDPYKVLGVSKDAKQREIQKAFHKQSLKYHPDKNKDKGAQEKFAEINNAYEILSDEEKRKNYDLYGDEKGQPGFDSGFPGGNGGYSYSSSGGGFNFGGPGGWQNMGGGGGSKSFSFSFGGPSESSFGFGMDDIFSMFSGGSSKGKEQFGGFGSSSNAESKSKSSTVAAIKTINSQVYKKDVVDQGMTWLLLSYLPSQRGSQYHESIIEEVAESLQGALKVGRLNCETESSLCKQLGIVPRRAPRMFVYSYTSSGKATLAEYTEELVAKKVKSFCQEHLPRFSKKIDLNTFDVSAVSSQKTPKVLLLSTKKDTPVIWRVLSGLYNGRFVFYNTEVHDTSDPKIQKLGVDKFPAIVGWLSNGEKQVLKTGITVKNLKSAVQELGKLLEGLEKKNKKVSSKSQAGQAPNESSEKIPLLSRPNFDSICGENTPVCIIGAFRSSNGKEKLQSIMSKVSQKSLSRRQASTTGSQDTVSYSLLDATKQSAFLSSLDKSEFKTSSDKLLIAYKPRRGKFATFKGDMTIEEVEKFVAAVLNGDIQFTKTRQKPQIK
The experiment can be described thus: co-IP; in vivo: 4M8H-tagged AtERdj constructs co-expressed with AtBiP1–GFP, CMV MP–GST or GFP in N. benthamiana leaves; total protein (100 µg) with c-Myc affinity beads 4 h at 4 °C; blots with anti-GFP or anti-GST.

The target of experiment [2] is T2, AtERdj2A–4M8H (Arabidopsis thaliana) (UniProt Q0WT48).
T2 sequence: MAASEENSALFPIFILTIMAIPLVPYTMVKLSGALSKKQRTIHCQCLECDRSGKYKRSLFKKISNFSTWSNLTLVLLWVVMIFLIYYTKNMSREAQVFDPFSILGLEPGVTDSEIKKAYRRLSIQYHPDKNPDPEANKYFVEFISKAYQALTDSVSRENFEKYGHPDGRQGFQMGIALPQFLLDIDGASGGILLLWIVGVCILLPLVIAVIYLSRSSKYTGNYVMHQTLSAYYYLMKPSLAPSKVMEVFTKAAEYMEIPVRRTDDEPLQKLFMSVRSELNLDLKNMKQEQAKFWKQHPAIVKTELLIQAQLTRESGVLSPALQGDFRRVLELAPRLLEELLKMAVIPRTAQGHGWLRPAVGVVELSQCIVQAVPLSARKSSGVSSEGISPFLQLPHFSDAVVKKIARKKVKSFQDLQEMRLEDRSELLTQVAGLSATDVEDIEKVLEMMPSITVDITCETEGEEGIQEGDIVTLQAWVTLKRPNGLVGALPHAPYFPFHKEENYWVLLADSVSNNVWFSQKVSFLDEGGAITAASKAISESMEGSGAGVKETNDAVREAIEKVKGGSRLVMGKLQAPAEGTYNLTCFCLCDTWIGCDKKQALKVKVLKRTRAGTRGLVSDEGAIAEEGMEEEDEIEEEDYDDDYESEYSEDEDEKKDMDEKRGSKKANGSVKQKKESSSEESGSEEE
The description is as above.

No constants are given. Whether binding was seen depends on the method and setting. In cells and extracts the contact can be indirect. For some assays here: Binding can be weak; no strength is given.

Turning to “CMV MP–GST (GST-fused cucumber mosaic virus movement protein)”, the figures for the binding result in experiment [1] and in experiment [2] were “no binding” and “binds”, respectively.

The record behind these values is PMC10838158.
